The text below walks through data of article PMC10352378.

Sequences of proteins named here, by UniProt entry; tags and fusion partners are left off.
UniProt Q9Y490: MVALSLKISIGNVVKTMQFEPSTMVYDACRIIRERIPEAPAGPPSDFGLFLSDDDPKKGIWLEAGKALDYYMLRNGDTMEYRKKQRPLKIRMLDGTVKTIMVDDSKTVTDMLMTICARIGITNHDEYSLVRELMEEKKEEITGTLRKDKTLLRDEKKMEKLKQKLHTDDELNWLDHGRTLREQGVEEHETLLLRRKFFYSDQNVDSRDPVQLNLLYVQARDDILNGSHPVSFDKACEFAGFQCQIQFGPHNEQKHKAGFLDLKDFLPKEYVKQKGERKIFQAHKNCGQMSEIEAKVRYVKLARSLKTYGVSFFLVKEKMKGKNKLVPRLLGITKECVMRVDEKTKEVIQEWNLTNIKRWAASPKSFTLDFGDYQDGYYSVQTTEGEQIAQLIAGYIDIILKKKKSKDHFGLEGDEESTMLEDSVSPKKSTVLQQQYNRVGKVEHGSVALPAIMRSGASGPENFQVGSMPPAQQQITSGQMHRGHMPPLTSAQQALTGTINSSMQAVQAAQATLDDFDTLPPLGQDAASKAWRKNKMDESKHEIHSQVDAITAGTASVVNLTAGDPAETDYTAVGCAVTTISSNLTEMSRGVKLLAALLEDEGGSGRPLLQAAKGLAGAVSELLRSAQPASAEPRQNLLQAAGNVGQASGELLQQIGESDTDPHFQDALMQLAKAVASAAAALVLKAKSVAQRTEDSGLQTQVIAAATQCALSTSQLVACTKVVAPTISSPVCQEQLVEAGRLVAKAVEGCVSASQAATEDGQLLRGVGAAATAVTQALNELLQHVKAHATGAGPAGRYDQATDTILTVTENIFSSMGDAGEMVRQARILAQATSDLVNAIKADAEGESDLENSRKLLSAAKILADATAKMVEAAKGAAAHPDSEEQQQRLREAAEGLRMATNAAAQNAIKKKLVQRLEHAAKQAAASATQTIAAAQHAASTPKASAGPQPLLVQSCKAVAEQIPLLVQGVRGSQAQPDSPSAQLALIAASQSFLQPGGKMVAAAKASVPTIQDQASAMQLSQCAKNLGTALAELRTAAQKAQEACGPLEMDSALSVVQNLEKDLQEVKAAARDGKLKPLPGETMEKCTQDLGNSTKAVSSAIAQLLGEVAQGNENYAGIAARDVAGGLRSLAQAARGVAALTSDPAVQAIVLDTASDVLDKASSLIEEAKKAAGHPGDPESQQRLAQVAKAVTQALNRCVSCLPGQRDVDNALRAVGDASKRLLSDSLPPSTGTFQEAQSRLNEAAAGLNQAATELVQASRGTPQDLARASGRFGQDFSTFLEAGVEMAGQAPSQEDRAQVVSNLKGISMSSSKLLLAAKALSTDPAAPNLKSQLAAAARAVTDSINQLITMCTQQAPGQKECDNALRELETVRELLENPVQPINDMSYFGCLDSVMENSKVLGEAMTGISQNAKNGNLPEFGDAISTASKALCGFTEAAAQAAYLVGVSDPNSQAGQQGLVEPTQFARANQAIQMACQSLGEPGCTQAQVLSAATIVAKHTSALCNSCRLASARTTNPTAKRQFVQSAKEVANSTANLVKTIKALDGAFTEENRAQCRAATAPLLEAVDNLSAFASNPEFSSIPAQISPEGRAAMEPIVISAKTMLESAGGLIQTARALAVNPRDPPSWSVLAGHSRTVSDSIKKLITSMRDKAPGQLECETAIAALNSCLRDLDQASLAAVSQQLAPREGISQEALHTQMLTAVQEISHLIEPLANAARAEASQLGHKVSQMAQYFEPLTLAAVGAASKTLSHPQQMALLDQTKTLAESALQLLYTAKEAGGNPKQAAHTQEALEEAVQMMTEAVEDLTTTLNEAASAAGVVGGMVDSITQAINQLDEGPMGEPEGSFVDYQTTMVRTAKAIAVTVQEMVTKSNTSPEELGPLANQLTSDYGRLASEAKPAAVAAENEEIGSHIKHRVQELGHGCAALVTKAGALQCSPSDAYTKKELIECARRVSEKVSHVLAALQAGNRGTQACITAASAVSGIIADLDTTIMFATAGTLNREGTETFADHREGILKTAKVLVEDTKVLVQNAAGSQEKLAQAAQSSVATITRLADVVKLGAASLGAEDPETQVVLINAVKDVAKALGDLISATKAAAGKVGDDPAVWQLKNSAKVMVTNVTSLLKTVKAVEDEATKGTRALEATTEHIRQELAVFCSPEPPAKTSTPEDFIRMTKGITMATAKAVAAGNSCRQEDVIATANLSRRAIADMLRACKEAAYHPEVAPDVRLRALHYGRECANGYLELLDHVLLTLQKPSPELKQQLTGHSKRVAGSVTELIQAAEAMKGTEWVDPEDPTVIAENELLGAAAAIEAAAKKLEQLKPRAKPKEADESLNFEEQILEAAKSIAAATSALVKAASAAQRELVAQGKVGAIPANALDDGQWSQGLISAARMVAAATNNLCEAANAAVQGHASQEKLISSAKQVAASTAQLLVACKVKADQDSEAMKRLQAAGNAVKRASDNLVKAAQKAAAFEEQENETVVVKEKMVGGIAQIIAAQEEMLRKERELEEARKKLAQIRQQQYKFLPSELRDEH
UniProt P19474: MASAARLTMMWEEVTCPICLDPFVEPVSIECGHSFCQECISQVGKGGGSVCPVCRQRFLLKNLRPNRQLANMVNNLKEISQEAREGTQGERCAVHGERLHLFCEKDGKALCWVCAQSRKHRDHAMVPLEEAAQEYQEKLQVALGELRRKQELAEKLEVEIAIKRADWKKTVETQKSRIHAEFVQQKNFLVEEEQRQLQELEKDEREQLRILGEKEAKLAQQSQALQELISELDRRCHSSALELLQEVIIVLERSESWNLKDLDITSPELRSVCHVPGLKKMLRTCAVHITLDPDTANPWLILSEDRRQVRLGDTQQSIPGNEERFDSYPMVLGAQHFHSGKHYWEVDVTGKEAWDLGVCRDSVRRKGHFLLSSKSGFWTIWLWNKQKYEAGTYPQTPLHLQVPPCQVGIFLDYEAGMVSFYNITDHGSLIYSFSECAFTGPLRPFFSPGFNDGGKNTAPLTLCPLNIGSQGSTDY

These are yes or no findings as the source states them, for the method shown. In cells and extracts the contact can be indirect. These calls come from enrichment with a bait or labelling near it, and not all partners need be listed.

The test deals with talin1 (cells and construct not stated) (UniProt Q9Y490). In words: affinity purification with mass spectrometry; talin1 immunoprecipitations analysed by timsTOF Pro mass spectrometry; cells not given.

Regarding “TRIM21 (found in talin1 immunoprecipitations by mass spectrometry) (from UniProt P19474 1-475) (enzyme)”, the binding entry is on record as “binds”.
